Laboratory results published in article PMC6071395.
These are yes or no findings as the source states them, for the method shown. Binding seen in cells or lysates may run through a third protein. Some results given as binding are weak or reduced against the parent protein; the word gives no strength.

Chains of the proteins cited; added tags and fusions are not shown.
UniProt Q15910: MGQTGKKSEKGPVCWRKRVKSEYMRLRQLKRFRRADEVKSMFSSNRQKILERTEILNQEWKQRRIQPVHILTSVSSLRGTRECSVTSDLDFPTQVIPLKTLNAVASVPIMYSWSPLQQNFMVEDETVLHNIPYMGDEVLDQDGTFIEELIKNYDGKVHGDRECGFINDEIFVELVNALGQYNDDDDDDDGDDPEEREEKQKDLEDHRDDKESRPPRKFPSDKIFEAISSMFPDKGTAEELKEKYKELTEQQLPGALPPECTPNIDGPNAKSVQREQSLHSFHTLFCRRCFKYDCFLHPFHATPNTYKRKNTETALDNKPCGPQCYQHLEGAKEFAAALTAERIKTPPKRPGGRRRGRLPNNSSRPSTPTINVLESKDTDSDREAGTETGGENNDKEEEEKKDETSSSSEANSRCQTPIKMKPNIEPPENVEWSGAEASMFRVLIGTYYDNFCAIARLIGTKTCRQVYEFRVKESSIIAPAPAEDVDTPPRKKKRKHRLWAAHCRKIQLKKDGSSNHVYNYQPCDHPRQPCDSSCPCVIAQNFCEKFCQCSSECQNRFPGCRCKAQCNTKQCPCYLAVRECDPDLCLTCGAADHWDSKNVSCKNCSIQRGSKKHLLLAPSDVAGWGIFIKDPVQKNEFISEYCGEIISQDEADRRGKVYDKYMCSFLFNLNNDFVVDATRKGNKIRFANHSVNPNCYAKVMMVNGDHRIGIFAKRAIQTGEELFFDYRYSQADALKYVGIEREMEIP
UniProt P12004: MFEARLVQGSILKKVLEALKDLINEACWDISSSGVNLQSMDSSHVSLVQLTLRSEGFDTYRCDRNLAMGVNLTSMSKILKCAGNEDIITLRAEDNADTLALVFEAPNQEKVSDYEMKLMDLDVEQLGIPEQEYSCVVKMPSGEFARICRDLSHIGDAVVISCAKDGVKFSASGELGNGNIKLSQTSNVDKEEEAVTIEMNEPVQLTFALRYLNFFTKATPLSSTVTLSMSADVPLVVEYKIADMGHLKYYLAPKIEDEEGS

Tests used:
[1] = target: Enhancer of zeste homologue 2 (EZH2), endogenous (human (endogenous in hDPCs and 293T)) (UniProt Q15910); experiment: co-IP; endogenous EZH2 and PCNA from lysate of hDPCs synchronized at S phase; agarose-immobilized antibodies overnight at 4 °C, IgG as control, western blot
[2] = target: Enhancer of zeste homologue 2 (EZH2), endogenous (human (endogenous in hDPCs and 293T)) (UniProt Q15910); experiment: proximity ligation; anti-EZH2 (goat) and anti-PCNA (mouse) antibodies in fixed hDPCs in S phase
[3] = target: FLAG-tagged full-length EZH2 (wild type) (UniProt Q15910); experiment: co-IP; 293T cells transfected with FLAG-tagged EZH2, EZH2∆SET or EZH2∆PIP; IP with FLAG antibody, blot for endogenous PCNA; IgG as control

Measured: binding

Proliferating cell nuclear antigen (PCNA), endogenous (from UniProt P12004 1-261)
binds: all assays above
